Measurements: publication PMC6959987
These are yes or no findings as the source states them, for the method shown. Binding seen in cells or lysates may run through a third protein. For some assays here: Sequences can lack the tags named with a protein.

T1: Msd1-GFP (Drosophila) (UniProt Q9W0G7)
T1 sequence: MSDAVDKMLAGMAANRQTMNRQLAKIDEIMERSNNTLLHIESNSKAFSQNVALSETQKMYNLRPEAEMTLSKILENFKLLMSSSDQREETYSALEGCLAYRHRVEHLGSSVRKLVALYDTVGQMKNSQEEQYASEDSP


Legend:
Msd1-GFP (Drosophila) = molecular target: T1, Msd1-GFP (Drosophila); experiment: co-IP; cleavable affinity purification (cl-AP): High Speed Supernatant of MG132-treated 0–3 hr Drosophila embryos incubated overnight at 4°C with GFP-TRAP-Sulfo or GFP-TRAP-PC beads (GFP-binding protein), washed in BRB80 + 0.1% IGEPAL, released with 50 mM DTT or UV; eluates by Western blot and SYPRO-ruby gel
[1] = molecular target: γ-Tubulin-GFP (Drosophila); experiment: as above

| binding (Msd1-GFP (Drosophila)) | binding [1] | Molecule |
| --- | --- | --- |
| no binding |  | γ-Tubulin (endogenously expressed, untagged) (Drosophila (endogenous in embryos)) |
|  | no binding | Dgt3 (a subunit of the Augmin complex) (protein, UniProt Q9W2P0 1-565) MGDLLSNSEFFKKLGVDSSNQWILYDEQMEMFFKFLSGNITDANILTERQVLEREEMQRRGEWLSASDRELKLLQIEAESPGLLNYKQQDVDALTMSIEAIEDASRDYATLLEDMMTTKHSITKHLGEVECVTAELQLREKDLIAECQSKAKQLEELQQENCRLSAEAKKAFTAPQLPPLFMHQLPLEQYFHKCDSFMQYFTLYVKENFKIQDYDEFQSAEEDLGREKAKLEDLERGIQFYALSYIRTKAKVKATQCLIDQLDLGKIHCLSLTDMAREMHDLQLLNDYQLSNTHDTLLNDLTIHIQQHTQRRIELVLYENTKLKLERAVRRHESDKKLTKIISDALSNAELLWIAIQLDCDKKRNCLDTSEELRDQAQATWQRIQTMRSINASYQGICAQFVQEIANLLSAHLGQNIKATEAKACLFEYEKFGRLLSYSFQSMLNRKSCAAVQDQLAELKRLEQTLRPFVYDSPLEQPMFENVRYLSAIYNVTQQQTRLDESGRSLRKDFLENVVGRIERDKLYRYSVVLWIWFLTEPQRMMHAIDEVKKAAAAVIRPGGGLHRK |
